This is an account of results in article PMC7997955.

Protein sequences, listed by entry. Tags and fused reporters are not part of them. Lines headed by an entry give the natural chain unless they say otherwise; changes in a name come on top. Chains listed by the source or under a name are the forms on record and can include a tag or linker. Residues count along the entry.
UniProt Q6PGQ7, residues 1-224: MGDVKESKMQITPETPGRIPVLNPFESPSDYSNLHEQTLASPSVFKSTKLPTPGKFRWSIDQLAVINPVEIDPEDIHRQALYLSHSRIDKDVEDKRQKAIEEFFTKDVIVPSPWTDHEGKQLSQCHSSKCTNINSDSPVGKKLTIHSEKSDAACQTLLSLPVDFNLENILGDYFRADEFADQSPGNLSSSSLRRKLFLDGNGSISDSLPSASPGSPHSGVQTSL
Plk1^1–330 KD^WT (kinase domain of Polo-like kinase 1) (P53350, form named): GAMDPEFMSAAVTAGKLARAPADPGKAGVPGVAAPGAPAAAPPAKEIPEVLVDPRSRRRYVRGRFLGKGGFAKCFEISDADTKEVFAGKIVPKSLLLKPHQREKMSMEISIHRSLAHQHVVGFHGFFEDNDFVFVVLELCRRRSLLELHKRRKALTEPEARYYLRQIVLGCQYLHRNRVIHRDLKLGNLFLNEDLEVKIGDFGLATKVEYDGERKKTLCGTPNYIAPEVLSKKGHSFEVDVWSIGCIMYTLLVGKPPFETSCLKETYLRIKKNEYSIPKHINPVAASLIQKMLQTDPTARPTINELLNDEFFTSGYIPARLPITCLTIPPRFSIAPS

The target of assay [1] is biotinylated AVI-tagged Bora^1–224 (human) (UniProt Q6PGQ7). The assay is described as follows: pull-down; as a2, but with a mix of AURKA^WT and Plk1 KD^WT added together to biotinylated AVI-Bora^1–224 or AVI-pBora^1–224 on streptavidin sepharose; both purified.
Assay [2] has the same target. The assay is described as follows: pull-down; 500 ng biotinylated AVI-Bora^1–224, phosphorylated or not by CyclinA2-Cdk2, mixed with AURKA^WT or Plk1 KD^WT (molar ratio 1:1), captured on streptavidin sepharose; on ice; 25 mM Tris pH 7.5, 150 mM NaCl, 20 mM MgCl2, 1 mM DTT, 0.05% Tween 20; immunoblot; both purified. A general note: A western blot detects proteins with antibodies after separation by electrophoresis.

These are yes or no findings as the source states them, for the method shown.

In the case of “Plk1^1–330 KD^WT (kinase domain of Polo-like kinase 1) (from UniProt P53350 1-330) (domain or fragment)”, the binding result in assay [1] and in assay [2] was “no binding” throughout.
